The list shows a part of the results. The data scatter; read single values as rough.
What follows are targets tested with ClCC(=O)N[C@H]1CCCc2ccccc12 (assay: log2 mean competition ratio of IA-DTB cysteine labelling (DMSO/compound) (log2 ratio); higher = stronger cysteine engagement by compound). Conditions: 50 µM; treatment time: 4 h; cell line lysate: HEK293T.
Experimental: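 IA-DTB competitive cysteine chemoproteomics in HEK293T RIPA lysate. Lysates were treated with compound 29 or 30 at 50 or 200 µM for 4 h, then IA-DTB (500 µM, 1 h), trypsin-digested, NeutrAvidin-enriched and analysed by diaPASEF. Competition ratio = intensity DMSO / intensity compound (n=4 treated, n=64 DMSO); binding: mean log2 CR ≥ 1 and p ≤ 0.05 plus QC filters. Target is the cysteine site.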

Chains of the proteins cited; added tags and fusions are not shown. Lines headed by an entry give the natural chain unless they say otherwise; changes in a name come on top. Residues count along the entry.
UniProt Q13322, 201-222: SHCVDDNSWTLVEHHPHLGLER
UniProt Q9HC44, 359-390: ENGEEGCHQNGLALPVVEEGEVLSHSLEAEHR
UniProt O75420: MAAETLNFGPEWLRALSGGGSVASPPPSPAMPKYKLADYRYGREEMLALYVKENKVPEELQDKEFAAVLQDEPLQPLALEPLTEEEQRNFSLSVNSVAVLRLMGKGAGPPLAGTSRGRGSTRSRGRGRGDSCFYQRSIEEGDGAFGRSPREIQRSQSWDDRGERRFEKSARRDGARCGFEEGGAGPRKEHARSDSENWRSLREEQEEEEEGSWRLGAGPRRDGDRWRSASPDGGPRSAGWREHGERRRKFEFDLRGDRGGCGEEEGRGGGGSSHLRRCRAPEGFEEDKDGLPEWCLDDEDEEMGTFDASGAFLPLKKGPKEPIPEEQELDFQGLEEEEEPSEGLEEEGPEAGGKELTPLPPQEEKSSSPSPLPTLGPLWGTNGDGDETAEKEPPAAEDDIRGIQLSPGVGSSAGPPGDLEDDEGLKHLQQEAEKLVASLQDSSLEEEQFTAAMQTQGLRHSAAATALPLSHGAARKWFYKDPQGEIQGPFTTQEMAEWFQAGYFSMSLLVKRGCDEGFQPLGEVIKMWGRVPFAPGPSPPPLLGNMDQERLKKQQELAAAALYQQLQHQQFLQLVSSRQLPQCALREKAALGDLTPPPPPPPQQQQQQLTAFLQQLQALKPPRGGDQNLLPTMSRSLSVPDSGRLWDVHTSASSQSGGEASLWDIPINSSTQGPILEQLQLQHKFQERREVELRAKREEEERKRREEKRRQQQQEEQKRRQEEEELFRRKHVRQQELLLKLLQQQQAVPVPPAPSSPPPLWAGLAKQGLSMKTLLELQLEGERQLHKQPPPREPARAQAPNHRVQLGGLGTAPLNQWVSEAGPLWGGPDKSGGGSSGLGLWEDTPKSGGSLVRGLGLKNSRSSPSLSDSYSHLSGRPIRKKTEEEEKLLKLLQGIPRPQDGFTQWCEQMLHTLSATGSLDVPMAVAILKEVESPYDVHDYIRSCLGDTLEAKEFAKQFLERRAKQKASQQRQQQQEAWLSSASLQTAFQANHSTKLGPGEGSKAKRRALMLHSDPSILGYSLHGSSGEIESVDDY
UniProt Q92616, whole entry, looked up: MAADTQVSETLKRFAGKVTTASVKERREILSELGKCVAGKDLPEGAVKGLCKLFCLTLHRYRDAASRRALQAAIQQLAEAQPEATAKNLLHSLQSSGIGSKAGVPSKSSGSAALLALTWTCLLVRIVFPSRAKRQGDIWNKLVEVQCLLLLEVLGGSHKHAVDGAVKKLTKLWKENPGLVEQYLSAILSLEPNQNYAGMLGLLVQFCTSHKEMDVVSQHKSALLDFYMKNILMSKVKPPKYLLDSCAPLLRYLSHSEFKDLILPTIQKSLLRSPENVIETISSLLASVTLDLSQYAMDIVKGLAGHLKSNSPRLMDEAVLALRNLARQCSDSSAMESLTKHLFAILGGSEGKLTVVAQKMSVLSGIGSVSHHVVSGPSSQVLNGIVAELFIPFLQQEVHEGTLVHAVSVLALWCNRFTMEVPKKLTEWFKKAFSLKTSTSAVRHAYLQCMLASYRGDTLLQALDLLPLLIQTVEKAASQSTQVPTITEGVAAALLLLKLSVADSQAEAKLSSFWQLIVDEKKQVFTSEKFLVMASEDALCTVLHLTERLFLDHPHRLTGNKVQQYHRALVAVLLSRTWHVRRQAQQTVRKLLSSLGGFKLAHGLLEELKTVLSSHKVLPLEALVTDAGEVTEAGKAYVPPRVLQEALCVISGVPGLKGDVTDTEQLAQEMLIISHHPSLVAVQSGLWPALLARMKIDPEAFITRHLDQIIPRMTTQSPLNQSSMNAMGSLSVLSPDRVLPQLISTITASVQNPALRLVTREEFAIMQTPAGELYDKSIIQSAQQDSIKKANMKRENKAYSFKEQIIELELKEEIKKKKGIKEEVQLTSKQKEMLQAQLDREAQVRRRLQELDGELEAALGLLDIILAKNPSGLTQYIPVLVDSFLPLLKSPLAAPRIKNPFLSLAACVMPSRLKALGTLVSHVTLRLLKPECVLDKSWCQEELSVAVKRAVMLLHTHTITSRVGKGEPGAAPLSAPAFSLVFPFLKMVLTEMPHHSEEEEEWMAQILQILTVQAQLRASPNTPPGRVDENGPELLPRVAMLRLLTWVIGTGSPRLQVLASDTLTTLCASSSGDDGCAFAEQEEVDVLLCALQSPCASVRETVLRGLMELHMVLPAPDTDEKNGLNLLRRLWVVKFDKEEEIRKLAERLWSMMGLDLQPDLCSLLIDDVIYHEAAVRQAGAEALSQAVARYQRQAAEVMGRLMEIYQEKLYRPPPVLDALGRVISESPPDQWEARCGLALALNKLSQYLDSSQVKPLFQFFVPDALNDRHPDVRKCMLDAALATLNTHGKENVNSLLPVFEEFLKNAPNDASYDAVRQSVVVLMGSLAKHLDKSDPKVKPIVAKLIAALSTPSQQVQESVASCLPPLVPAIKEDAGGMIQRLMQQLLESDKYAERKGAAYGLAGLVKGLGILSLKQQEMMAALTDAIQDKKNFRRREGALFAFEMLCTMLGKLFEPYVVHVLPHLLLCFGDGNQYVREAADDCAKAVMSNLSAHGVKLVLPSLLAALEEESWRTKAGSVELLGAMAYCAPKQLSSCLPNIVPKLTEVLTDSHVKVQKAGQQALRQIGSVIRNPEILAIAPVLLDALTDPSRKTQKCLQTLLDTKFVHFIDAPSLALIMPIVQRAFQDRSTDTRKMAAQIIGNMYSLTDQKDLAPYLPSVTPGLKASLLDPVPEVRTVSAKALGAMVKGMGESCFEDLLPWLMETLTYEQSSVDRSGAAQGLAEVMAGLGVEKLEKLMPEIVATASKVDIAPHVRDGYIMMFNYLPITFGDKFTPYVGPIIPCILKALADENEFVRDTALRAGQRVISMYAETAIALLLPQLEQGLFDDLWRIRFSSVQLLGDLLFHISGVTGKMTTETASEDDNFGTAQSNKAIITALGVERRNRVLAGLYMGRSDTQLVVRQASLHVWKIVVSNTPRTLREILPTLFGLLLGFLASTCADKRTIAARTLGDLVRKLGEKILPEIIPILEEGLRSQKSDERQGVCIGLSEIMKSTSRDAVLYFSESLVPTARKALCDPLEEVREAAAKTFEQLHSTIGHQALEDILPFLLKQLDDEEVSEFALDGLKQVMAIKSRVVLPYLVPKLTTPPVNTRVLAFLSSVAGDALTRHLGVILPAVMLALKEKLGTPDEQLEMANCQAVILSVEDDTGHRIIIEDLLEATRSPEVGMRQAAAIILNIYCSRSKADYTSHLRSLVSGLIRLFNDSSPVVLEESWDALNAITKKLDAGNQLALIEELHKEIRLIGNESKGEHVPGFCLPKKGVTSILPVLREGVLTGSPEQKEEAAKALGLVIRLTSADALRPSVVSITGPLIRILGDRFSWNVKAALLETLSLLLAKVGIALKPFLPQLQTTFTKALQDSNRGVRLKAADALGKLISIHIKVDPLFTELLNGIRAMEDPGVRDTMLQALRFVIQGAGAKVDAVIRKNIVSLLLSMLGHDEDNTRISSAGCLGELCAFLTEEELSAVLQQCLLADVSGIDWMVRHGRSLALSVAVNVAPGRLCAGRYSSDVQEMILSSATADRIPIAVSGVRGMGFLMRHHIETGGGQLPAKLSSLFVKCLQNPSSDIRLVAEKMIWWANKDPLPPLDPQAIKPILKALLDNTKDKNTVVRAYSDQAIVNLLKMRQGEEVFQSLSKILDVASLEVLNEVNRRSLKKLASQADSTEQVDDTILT
UniProt Q17RS7, 612-638: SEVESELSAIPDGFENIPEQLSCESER
UniProt Q9NPB8: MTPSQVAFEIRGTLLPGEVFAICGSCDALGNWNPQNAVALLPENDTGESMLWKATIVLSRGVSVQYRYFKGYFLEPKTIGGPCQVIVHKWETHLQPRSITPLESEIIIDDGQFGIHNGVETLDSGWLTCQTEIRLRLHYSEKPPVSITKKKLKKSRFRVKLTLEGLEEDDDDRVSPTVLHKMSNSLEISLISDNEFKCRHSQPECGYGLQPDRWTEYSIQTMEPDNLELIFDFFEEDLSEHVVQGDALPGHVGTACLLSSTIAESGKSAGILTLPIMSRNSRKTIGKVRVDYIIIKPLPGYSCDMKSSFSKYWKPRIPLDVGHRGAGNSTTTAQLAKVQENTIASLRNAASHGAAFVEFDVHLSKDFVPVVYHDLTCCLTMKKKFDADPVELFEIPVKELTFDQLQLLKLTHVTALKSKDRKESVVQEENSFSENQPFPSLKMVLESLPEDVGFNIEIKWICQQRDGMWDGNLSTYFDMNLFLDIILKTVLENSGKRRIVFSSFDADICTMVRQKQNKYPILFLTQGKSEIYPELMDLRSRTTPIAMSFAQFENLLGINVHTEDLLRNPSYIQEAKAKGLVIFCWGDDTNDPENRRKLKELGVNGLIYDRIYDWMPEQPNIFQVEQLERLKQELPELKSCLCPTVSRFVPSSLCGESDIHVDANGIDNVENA
UniProt P16278: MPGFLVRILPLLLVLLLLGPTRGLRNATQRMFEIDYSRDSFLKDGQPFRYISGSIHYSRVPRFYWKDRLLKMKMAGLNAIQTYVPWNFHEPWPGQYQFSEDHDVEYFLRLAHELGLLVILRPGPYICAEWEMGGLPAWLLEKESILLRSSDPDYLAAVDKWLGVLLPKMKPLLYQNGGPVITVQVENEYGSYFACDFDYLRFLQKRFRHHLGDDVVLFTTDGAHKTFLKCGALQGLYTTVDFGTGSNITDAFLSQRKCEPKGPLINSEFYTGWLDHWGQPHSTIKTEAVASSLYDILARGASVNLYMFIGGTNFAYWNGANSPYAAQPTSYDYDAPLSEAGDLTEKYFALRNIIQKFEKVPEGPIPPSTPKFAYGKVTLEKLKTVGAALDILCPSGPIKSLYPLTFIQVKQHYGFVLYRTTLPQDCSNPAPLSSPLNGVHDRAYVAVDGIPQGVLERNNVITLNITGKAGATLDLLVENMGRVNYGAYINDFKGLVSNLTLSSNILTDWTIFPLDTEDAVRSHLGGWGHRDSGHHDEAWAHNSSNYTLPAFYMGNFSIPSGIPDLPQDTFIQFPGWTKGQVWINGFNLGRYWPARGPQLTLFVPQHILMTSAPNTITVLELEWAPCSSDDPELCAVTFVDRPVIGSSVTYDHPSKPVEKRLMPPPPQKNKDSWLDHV
UniProt P62873: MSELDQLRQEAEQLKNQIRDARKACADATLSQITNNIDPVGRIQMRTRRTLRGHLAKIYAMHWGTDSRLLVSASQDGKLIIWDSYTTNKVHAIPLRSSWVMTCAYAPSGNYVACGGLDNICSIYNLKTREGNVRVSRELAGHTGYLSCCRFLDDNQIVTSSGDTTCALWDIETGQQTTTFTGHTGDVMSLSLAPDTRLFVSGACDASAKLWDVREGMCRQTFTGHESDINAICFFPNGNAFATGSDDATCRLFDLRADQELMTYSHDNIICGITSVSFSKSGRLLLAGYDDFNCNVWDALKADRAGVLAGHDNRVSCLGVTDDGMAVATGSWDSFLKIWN
UniProt P08754, whole entry, looked up: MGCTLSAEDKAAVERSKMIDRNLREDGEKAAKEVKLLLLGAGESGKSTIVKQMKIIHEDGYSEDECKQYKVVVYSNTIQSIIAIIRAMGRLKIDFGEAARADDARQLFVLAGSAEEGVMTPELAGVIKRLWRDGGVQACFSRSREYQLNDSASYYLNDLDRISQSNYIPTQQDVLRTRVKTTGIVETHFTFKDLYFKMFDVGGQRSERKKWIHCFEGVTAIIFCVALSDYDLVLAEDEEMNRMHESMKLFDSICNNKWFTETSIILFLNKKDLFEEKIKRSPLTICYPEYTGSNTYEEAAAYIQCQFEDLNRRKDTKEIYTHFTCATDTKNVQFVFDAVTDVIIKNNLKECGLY
UniProt Q9H4A6: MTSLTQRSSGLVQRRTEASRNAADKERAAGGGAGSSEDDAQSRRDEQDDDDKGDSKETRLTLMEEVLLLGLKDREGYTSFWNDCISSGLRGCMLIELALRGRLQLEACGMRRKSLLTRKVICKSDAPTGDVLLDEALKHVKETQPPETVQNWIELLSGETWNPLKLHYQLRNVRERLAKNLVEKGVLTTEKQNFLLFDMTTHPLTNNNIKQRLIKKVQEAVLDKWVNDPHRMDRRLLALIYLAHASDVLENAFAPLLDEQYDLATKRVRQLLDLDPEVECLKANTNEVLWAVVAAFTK
UniProt P36969, whole entry, looked up: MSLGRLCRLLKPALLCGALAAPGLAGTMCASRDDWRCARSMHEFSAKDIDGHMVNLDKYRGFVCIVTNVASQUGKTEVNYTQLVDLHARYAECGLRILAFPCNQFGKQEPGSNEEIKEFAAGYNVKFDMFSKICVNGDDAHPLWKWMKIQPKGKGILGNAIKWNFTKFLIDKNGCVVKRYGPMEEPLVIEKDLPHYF

| Target | log2 mean competition ratio |
| --- | --- |
| GRB10 C203 (UniProt Q13322) | -0.204 |
| GPBP1L1 C365 (UniProt Q9HC44) | -0.242 |
| GNPAT C668 (UniProt O15228) | 0.101 |
| GIGYF1 C261 (UniProt O75420) | -0.0448 |
| GBF1 C1110 (UniProt Q92538) | 0.101 |
| GREB1 C1202 (UniProt Q4ZG55) | 0.175 |
| GCN1 C1482 (UniProt Q92616) | -0.138 |
| GCN1 C939 (UniProt Q92616) | -0.222 |
| GEN1 C634 (UniProt Q17RS7) | -0.243 |
| GPCPD1 C205 (UniProt Q9NPB8) | 0.0156 |
| GPRIN1 C46 (UniProt Q7Z2K8) | 0.313 |
| GLB1 C393 (UniProt P16278) | -0.298 |
| GEMIN5 C867 (UniProt Q8TEQ6) | -0.551 |
| GNB1 C204 (UniProt P62873) | -0.00129 |
| GNL2 C336 (UniProt Q13823) | -0.148 |
| GNAI3 C139 (UniProt P08754) | 0.0819 |
| GOLPH3 C108 (UniProt Q9H4A6) | 0.185 |
| GPX4 C93 (UniProt P36969) | 0.419 |
| GPATCH11 C95 (UniProt Q8N954) | 0.342 |
| GPD2 C270 (UniProt P43304) | -0.382 |

Same assay, conditions: 200 µM; treatment time: 4 h; cell line lysate: HEK293T

| Target | log2 mean competition ratio |
| --- | --- |
| GRB10 C203 (UniProt Q13322) | -0.0937 |
| GPBP1L1 C365 (UniProt Q9HC44) | -0.2 |
| GNPAT C668 (UniProt O15228) | 0.0456 |
| GIGYF1 C261 (UniProt O75420) | 0.17 |
| GBF1 C1110 (UniProt Q92538) | 0.252 |
| GREB1 C1202 (UniProt Q4ZG55) | -0.141 |
| GCN1 C1482 (UniProt Q92616) | 0.284 |
| GCN1 C939 (UniProt Q92616) | -0.245 |
| GEN1 C634 (UniProt Q17RS7) | 0.125 |
| GPCPD1 C205 (UniProt Q9NPB8) | 0.1 |
| GPRIN1 C46 (UniProt Q7Z2K8) | 0.33 |
| GLB1 C393 (UniProt P16278) | -0.33 |
| GEMIN5 C867 (UniProt Q8TEQ6) | 0.0202 |
| GNB1 C204 (UniProt P62873) | 0.109 |
| GNL2 C336 (UniProt Q13823) | -0.0427 |
| GNAI3 C139 (UniProt P08754) | 0.0548 |
| GOLPH3 C108 (UniProt Q9H4A6) | 0.0396 |
| GPX4 C93 (UniProt P36969) | -0.0174 |
| GPATCH11 C95 (UniProt Q8N954) | 0.0699 |
| GPD2 C270 (UniProt P43304) | -0.0478 |

From the supplement of paper PMC11732987, “Enantioselective OTUD7B fragment discovery through chemoproteomics screening and high-throughput optimisation” (Communications Chemistry, 2025)
